In PubChem BioAssay AID720504 (National Center for Advancing Translational Sciences (NCATS), 2013):
About 10,000 (2.8%) of roughly 360,000 compounds were called active. This list was built around the results that the source calls inconclusive (neither active nor inactive); the mix of calls is not that of the screen. Calls come from the whole dose curve; as a rule, active = well fitted inhibition curve with a large enough effect; inconclusive = small, poorly fitted or top-dose-only effect; inactive = flat fitted curve, though single readings scatter. Potencies of inconclusive entries are doubtful fits and often do not repeat.

The chains behind the UniProt entries cited, without tags or fusion partners.
UniProt P53350, whole entry, looked up: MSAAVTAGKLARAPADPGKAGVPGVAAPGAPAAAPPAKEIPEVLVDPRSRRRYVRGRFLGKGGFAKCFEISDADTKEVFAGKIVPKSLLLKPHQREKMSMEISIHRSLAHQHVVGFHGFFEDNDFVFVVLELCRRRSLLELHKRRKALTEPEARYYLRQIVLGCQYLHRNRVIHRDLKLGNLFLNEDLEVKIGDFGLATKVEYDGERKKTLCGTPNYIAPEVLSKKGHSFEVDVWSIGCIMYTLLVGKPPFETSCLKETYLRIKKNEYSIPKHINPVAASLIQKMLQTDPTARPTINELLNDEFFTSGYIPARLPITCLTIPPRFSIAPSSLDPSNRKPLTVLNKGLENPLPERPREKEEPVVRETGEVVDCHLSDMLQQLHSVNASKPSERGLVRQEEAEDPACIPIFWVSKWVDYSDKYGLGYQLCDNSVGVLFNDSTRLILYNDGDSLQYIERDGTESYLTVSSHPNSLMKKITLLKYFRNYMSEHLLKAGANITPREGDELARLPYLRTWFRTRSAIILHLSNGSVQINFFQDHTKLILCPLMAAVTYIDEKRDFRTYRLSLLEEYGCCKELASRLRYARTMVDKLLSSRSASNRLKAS

molecular target: Serine/threonine-protein kinase PLK1 (Homo sapiens) (UniProt P53350); assay: qHTS for Inhibitors of PLK1-PDB (polo-like kinase 1 - polo-box domain): Primary Screen; settings: Plk1 PBD binding of FITC phosphopeptide, fluorescence polarization; note: nearly all actives have a fitted effect of over 65% in size; for max response, negative = inhibition: series mostly up to about 57 µM
% is set by controls: 0 for no effect and ±100 for the full control effect; potency is the fitted concentration of half-maximal effect.

SMILES | Potency | max response, negative = inhibition
CC(=O)OCCc1c(C)nc2nc[nH]n2c1=O | inconclusive: 26.7 µM [inhibitor, single point] | 
C[C@H](CO)N1C[C@H](C)[C@@H](CN(C)CC2CCCCC2)Oc2c(NC(=O)Cc3ccccc3)cccc2C1=O | active: 18.9 µM | 
NC(=O)c1cccc(-c2coc3c(C(=O)NCc4ccccc4)cccc23)c1 |  | inactive: -4.58%
c1coc(CNC2CCCCCCC2)c1 | inconclusive: 29.9 µM [inhibitor, single point] | 
Cc1nc(N2CCN(Cc3ccccc3)CC2)nc2c1C(=O)CCC2 | inconclusive: 29.9 µM [inhibitor, partial curve] | 
Cc1cc(C)nc(SCc2cc(=O)c(OC(=O)c3ccc(Br)o3)co2)n1 |  | inconclusive: -40% [inhibitor]
COc1ccc(-n2cc(CNCCCn3ccnc3)c(-c3cccc(F)c3)n2)cc1 |  | inactive: -3.99%
CCn1c(=O)c2c(n3c(=S)[nH]nc13)-c1ccccc1CC21CCCCC1 | inconclusive: 29.9 µM [inhibitor, single point] | 
CCc1ccc(C(=O)/C=C/Nc2ccc(S(=O)(=O)Nc3onc(C)c3C)cc2)cc1 | inconclusive: 37.7 µM [inhibitor, single point] | 
O=C(Nc1c(C(=O)O)oc2ccc(Br)cc12)c1ccccc1 | inconclusive: 37.7 µM [inhibitor, single point] | 
CCC1(C(=O)OC)CCc2c(cc(OC)c3ccccc23)C1=O (configuration not stated) |  | inactive: -7.41%
COc1ccc(C2CC(c3ccccc3)=NN2c2ccc(Cl)c(C(=O)O)c2)cc1 (configuration not stated) | inconclusive: 21.2 µM [inhibitor, single point] | 
COc1ccc(C/C(C)=N/NC(=S)Nc2ccc(C)c(C)c2)cc1 |  | inconclusive: -33.3% [inhibitor]
O=C1c2ccc(Oc3cccc([N+](=O)[O-])c3)cc2C(=O)N1c1ccccn1 | active: 10.6 µM | 
Cc1ccsc1C(=O)NNC(=O)Nc1ccc(Cl)c(Cl)c1 | inconclusive: 26.7 µM [inhibitor, partial curve] | 
CNc1ccc(Br)cc(C(=O)/C=C/c2ccc(OC)cc2)c1=O | inconclusive: 26.7 µM [inhibitor, single point] | 
CC(C)C1OC2(C)OC(=N)C1(C#N)C(C#N)(C#N)C2c1ccccc1 (configuration not stated) | inconclusive: 26.7 µM [inhibitor, single point] | 
COc1cc(C=C2C(=O)c3ccccc3C2=O)cc(OC)c1OC | active: 0.67 µM | 
CCc1nc2ccc(C(=O)Nc3nnc(C)s3)cc2nc1CC | inconclusive: 21.2 µM [inhibitor, partial curve] | 
O=S1(=O)N=C(N2CCN(Cc3ccccc3)CC2)c2ccccc21 | inconclusive: 26.7 µM [inhibitor, partial curve] | 
CC(C)(C)c1ccc(C(=O)NC(=S)Nc2sc3c(c2C#N)CCC3)cc1 | inconclusive: 16.8 µM [inhibitor, partial curve] | 
O=C1CCCCCN1Sc1ccccc1 | active: 1.06 µM | 
Cc1c(CCC(=O)NCCC(=O)O)c(=O)oc2cc3occ(-c4ccccc4)c3cc12 | inconclusive: 67 µM [inhibitor, single point] | 
O=C(Nc1ccc(Cl)c(Cl)c1)Oc1ccc(NC(=O)c2ccco2)cc1 | inconclusive: 11.9 µM [inhibitor, partial curve] | 

No new results follow: entries from further up.
SMILES | Potency | max response, negative = inhibition
O=C1c2ccc(Oc3cccc([N+](=O)[O-])c3)cc2C(=O)N1c1ccccn1 | active: 10.6 µM | 
Cc1ccsc1C(=O)NNC(=O)Nc1ccc(Cl)c(Cl)c1 | inconclusive: 26.7 µM [inhibitor, partial curve] | 

(continued)

SMILES | Potency | max response, negative = inhibition
CCN(C[C@H]1N[C@@](CC)(C(=O)OC)[C@H]2C(=O)N(C)C(=O)[C@@H]12)C(=O)COc1ccccc1 |  | inactive: -5.47%
O=C(c1ccco1)N1CCN(Cc2nc(Cc3ccccc3)no2)CC1 |  | inactive: -15.2%
O=C(COc1ccc2c(-c3ccccc3)cc(=O)oc2c1)NCc1ccccn1 |  | inactive: -1.44%
Cc1cc(C)cc(NC(=S)NCc2ccc(S(N)(=O)=O)cc2)c1 | inconclusive: 33.6 µM [inhibitor, single point] | 
CN(C)S(=O)(=O)c1cccc(COC(=O)c2ccc(Cl)cc2O)c1 | inconclusive: 23.8 µM [inhibitor, partial curve] | 
N#C/C(=C\c1ccco1)C(=O)Nn1cnnc1 |  | inconclusive: -33.6% [inhibitor]
C/C(=N/NC(=O)c1cc2ccccc2cc1O)C1C(=O)c2ccccc2C1=O | active: 9.47 µM | 
c1csc(C2Nc3cccc4cccc(c34)N2)c1 | active: 29.9 µM | 
CN(C)/C=C/c1c([N+](=O)[O-])c2ccc(O)cc2n1-c1ccccc1 |  | inactive: 0.398%
CC(C)(C)NC(=O)C(c1cc2ccccc2o1)n1c(=O)c(-c2ccco2)nc2ccccc21 (configuration not stated) |  | inactive: -28.4%
O=C(NNC(=S)Nc1ccccc1)c1cc(Br)ccc1Cl |  | inconclusive: -31.2% [inhibitor]
CCn1cc(C(=O)OCC(=O)c2cc(C)n(-c3ccccc3F)c2C)c(=O)c2ccc(C)nc21 | active: 26.7 µM | 
O=c1c(Cl)c(NCCCO)cnn1-c1nc2ccccc2[nH]1 | active: 13.4 µM | 
S=c1[nH]nc(Cn2cnc3ccccc32)n1-c1ccccc1 | inconclusive: 23.8 µM [inhibitor, partial curve] | 
COc1cc(CN2CC(=O)N(c3cc(Cl)ccc3C)C2=S)cc(OC)c1OC | active: 15 µM | 
O=[N+]([O-])c1ccc(-c2cn(-c3ccc(Cl)cc3)c(=S)[nH]2)cc1 |  | inactive: -6.46%
Clc1cccc(Cl)c1NC1=NCCC1 |  | inactive: -7.98%
COC(=O)c1ccc(-n2c(C)cc(C(=O)CSc3ccc(NC(C)=O)cc3)c2C)cc1 | active: 13.4 µM | 
CCCc1cc(=O)[nH]c(SCC(=O)Nc2sc3c(c2C#N)CCC(C)C3)n1 (configuration not stated) | inconclusive: 29.9 µM [inhibitor, partial curve] | 
CCn1cc(Cl)c(C(=O)Nc2ccc3c(c2)OCCO3)n1 |  | inactive: 0.305%
O=C(CCS(=O)(=O)c1ccc(Br)cc1)NCCC1=CCCCC1 | inconclusive: 21.2 µM [inhibitor, single point] | 
CC(=O)Oc1cc2c(cc1Cl)C(c1cccs1)CC1(CC(C)(C)NC(=S)N1)O2 (configuration not stated) |  | inactive: -5.55%
CCOC(=O)Cc1csc(SCC(=O)Nc2cc(C)ccc2OC)n1 | inconclusive: 26.7 µM [inhibitor, single point] | 
CCNC(=S)N/N=C/c1cc(C)ccc1C |  | inactive: -7.84%

Arranged by formula weight (rising): some entries from above.
SMILES | Potency | max response, negative = inhibition
CCNC(=S)N/N=C/c1cc(C)ccc1C |  | inactive: -7.84%
c1csc(C2Nc3cccc4cccc(c34)N2)c1 | active: 29.9 µM | 
CCOC(=O)Cc1csc(SCC(=O)Nc2cc(C)ccc2OC)n1 | inconclusive: 26.7 µM [inhibitor, single point] | 
CCCc1cc(=O)[nH]c(SCC(=O)Nc2sc3c(c2C#N)CCC(C)C3)n1 (configuration not stated) | inconclusive: 29.9 µM [inhibitor, partial curve] | 

Going on with the list:

SMILES | Potency | max response, negative = inhibition
NC(=O)/C(=C/c1ccco1)C(N)=S | inconclusive: 26.7 µM [inhibitor, single point] | 
CC(=O)c1c2c3c(cccc3n(C)c1=O)C(=O)c1ccccc1-2 | inconclusive: 16.8 µM [inhibitor, partial curve] | 
Cn1cccc1Cc1nnc(SCC(=O)Nc2cccc(Cl)c2)n1-c1ccc(F)cc1 | active: 26.7 µM | 
C=C(C)CSc1nc2c(c(=O)[nH]c(=O)n2C)n1CCC(C)C | inconclusive: 29.9 µM [inhibitor, partial curve] | 
O=C(Cn1c2[n+](c3ccc(C(F)(F)F)cc31)CCCCC2)Nc1ccccc1 |  | inactive: 1.11%
CCC(C)(C)NC(=O)C(Sc1ccccc1)c1ccccc1 (configuration not stated) | inconclusive: 21.2 µM [inhibitor, single point] | 
Fc1ccccc1N1CCN(CC2CCCCC2)CC1 |  | inactive: -5.33%
O=C(CSC(=S)N1CCCCC1)c1c(F)cccc1F | inconclusive: 26.7 µM [inhibitor, partial curve] | 
CCCCn1c(=O)[nH]c(=O)c2c1nc(-c1ccccc1F)n2Cc1ccccc1OC |  | inactive: -11.3%
c1ccc(OCc2nnc3sc(-c4cccs4)nn23)cc1 | active: 5.32 µM | 
Cn1ccnc1Sc1ccccc1[N+](=O)[O-] | inconclusive: 29.9 µM [inhibitor, single point] | 
CCOc1ccccc1C1C(C#N)=C(N)Oc2n[nH]c(CC)c21 (configuration not stated) | inconclusive: 37.7 µM [inhibitor, single point] | 
CCOC(=O)c1ccc(NC(=O)c2ccc3c(c2)OCO3)cc1 | inconclusive: 26.7 µM [inhibitor, partial curve] | 
Cc1ccc(S(=O)(=O)Nc2cccnc2)cc1 | active: 21.2 µM | 
COC(=O)[C@]12CCCCC=C1N(Cc1cccc3ccccc13)C(=O)[C@H](CC(=O)NCc1cccc(C(F)(F)F)c1)C2 |  | inactive: -14.4%
CC(=O)NC(NC(=S)Nc1cccc(Br)c1)C(Cl)(Cl)Cl (configuration not stated) | inconclusive: 26.7 µM [inhibitor, partial curve] | 
CC1CCN(CCCCOc2cccc(C(C)C)c2)CC1 |  | inactive: -4.22%
Cc1cc(O)ccc1Nc1nc(-c2sc(N)nc2C)cs1 | inconclusive: 11.9 µM [inhibitor, partial curve] | 
COc1ccc(NS(=O)(=O)c2ccc(O)c(NC(=O)c3ccc(S(=O)(=O)N4CCCC4)cc3)c2)cc1 | inconclusive: 29.9 µM [inhibitor, single point] | 
O=C(O)CC/C(=C/c1cccc(NC(=O)c2ccccc2Cl)c1)c1nc2ccccc2s1 | inconclusive: 33.6 µM [inhibitor, single point] | 
O=C(CCS(=O)(=O)c1cccc2nsnc12)NC1CCCCC1 | inconclusive: 18.9 µM [inhibitor, partial curve] | 
C#CCN(C[C@@H]1[C@@H](OC(=O)NCc2ccccc2F)[C@@H](OC(=O)NCc2ccccc2F)Cn2c(=O)n(CCCCCC)c(=O)n21)S(=O)(=O)c1ccc(C)cc1 | inconclusive: 23.8 µM [inhibitor, partial curve] | 
CCN(CC)C(=O)COC(=O)c1cc(-c2ccco2)nc2ccccc12 | inconclusive: 26.7 µM [inhibitor, single point] | 
CNC(=O)COC(=O)C1CCN(S(=O)(=O)c2ccc3c(c2)OCCO3)CC1 |  | inactive: 1.67%
